{"source": "patent US7351843B2", "about": "“Furancarbonylguanidine derivatives, their preparation and pharmaceutical compositions containing them” (Korea Research Institute of Chemical Technology, priority 2003, dated 2008)", "system": "ischemic rat heart", "assay": "Cardioprotective effect on in vivo ischemic rat heart model (LAD occlusion 45 min / reperfusion 90 min, infarct size)", "conditions": "by the administration of 0.1 mg/kg", "protocol": "Left thoracotomy was performed. […] Cariporide was used for a control group.", "note": "Some of these results come from one statement about several compounds together. At least one structure is not confirmed: it was looked up by name or label, or the drawing left a doubt.", "data": [{"compound": "COc1ccccc1-c1ccc(C(=O)NC(=N)N)o1.CS(=O)(=O)O", "note": "[Example 14, [5-(2-methoxyphenyl)furan-2-ylcarbonyl]guanidine methanesulfonate]", "values": [{"measurement": "myocardial infration rate (summary sentence of the text)", "value": "under 40%"}]}]}
